Reference: US12389910B2, “Beta-lactams and their use as herbicides” (BASF SE, priority 2020, dated 2025)
Some of these results come from one statement about several compounds together. Some compounds share one range, which may span the group rather than tell each member.

Tests used:
[1] = system: ECHCG; test: greenhouse herbicidal activity, post-emergence treatment; type: in vivo, Echinocloa crus-galli; conditions: post-emergence method, scale 0 to 100
Description: (§1) The culture containers used were plastic flowerpots containing loamy sand with approximately 3.0% of humus as the substrate. The seeds of the test plants were sown separately for each species.
(§2) For the pre-emergence treatment, the active ingredients, which had been suspended or emulsified in water, were applied directly after sowing by means of finely distributing nozzles. The containers were irrigated gently to promote germination and growth and subsequently covered with transparent plastic hoods until the test plants had rooted. This cover caused uniform germination of the test plants, unless this had been impaired by the active ingredients. For the post-emergence treatment, the test plants were first grown to a height of 3 to 15 cm, depending on the plant habit, and only then treated with the active ingredients which had been suspended or emulsified in water. For this purpose, the test plants were either sown directly and grown in the same containers, or they were first grown separately as seedlings and transplanted into the test containers a few days prior to treatment.
(§3) Depending on the species, the test plants were kept at 10-25° C. or 20-35° C., respectively. The test period extended over 2 to 4 weeks. During this time, the test plants were tended, and their response to the individual treatments was evaluated.
(§4) Evaluation was carried out using a scale from 0 to 100. 100 means no emergence of the test plants, or complete destruction of at least the aerial moieties, and 0 means no damage, or normal course of growth. A good herbicidal activity is given at values of 80 to 90 and a very good herbicidal activity is given at values of 90 to 100.
(§5) The test plants used in the greenhouse experiments were of the following species: Bayer code Scientific name

[2] = system: SETFA; test: greenhouse herbicidal activity, pre-emergence treatment; type: in vivo, Setaria faberi; conditions: pre-emergence method, scale 0 to 100
Description: as §1, §2, §3, §4, §5

[3] = system: SETVI; test: greenhouse herbicidal activity, post-emergence treatment; type: in vivo, Setaria viridis; conditions: post-emergence method, scale 0 to 100
Description: as §1, §2, §3, §4, §5

[4] = system: APESV; test: greenhouse herbicidal activity, pre-emergence treatment; type: in vivo, Apera spica-venti; conditions: pre-emergence method, scale 0 to 100
Description: as §1, §2, §3, §4, §5

[5] = system: ECHCG; test: as above; type: in vivo, Echinocloa crus-galli; conditions: pre-emergence method, application rate 0,500 kg/ha; scale 0 to 100
Description: as §1, §2, §3, §4, §5

[6] = system: ALOMY; test: greenhouse herbicidal activity, post-emergence treatment; type: in vivo, Alopercurus myosuroides; conditions: post-emergence method, scale 0 to 100
Description: as §1, §2, §3, §4, §5

[7] = system: AVEFA; test: as above; type: in vivo, Avena fatua; conditions: post-emergence method, application rate 0,250 kg/ha; scale 0 to 100
Description: as §1, §2, §3, §4, §5

[8] = system: AMARE; test: greenhouse herbicidal activity, pre-emergence treatment; type: in vivo, Amaranthus retroflexus; conditions: pre-emergence method, application rate 0,250 kg/ha; scale 0 to 100
Description: as §1, §2, §3, §4, §5

In the case of `CCC1(C(=O)NC(C)CC(=O)OC)CN(c2cc(Cl)cc(Cl)c2)C1=O` (centres unmarked) [compound 125], the “herbicidal activity against ECHCG” value ([1]; application rate 0,250 kg/ha) is reported as “very good (a very good herbicidal activity is given at values of 90 to 100)”, the “herbicidal activity against SETFA” value ([2]; application rate 0,250 kg/ha) is reported as “very good (a very good herbicidal activity is given at values of 90 to 100)” and the “herbicidal activity against SETVI” value ([3]; application rate 0,250 kg/ha) is reported as “very good (a very good herbicidal activity is given at values of 90 to 100)”. For the same molecule, the “herbicidal activity against APESV” value ([4]; application rate 0,250 kg/ha) was “very good (a very good herbicidal activity is given at values of 90 to 100)”.

For `COC(=O)CC(C)NC(=O)C1(C2CC2)CN(c2cc(Cl)cc(Cl)c2)C1=O` (centres unmarked) [compound 126], the “herbicidal activity against ECHCG” value [5] was “very good (a very good herbicidal activity is given at values of 90 to 100)”, the “herbicidal activity against ECHCG” value ([1]; application rate 0,500 kg/ha) was “very good (a very good herbicidal activity is given at values of 90 to 100)” and the “herbicidal activity against SETFA” value ([2]; application rate 0,500 kg/ha) was “very good (a very good herbicidal activity is given at values of 90 to 100)”. The “herbicidal activity against ALOMY” value ([6]; application rate 0,500 kg/ha) was “very good (a very good herbicidal activity is given at values of 90 to 100)”, the “herbicidal activity against SETVI” value ([3]; application rate 0,500 kg/ha) was “very good (a very good herbicidal activity is given at values of 90 to 100)” and the “herbicidal activity against APESV” value ([4]; application rate 0,500 kg/ha) was “very good (a very good herbicidal activity is given at values of 90 to 100)”.

In the case of `COC(=O)CC(C)NC(=O)C1(C2CC2)CN(c2cc(F)cc(F)c2)C1=O` (centres unmarked) [compound 132], the “herbicidal activity against AVEFA” value [7] is reported as “very good (a very good herbicidal activity is given at values of 90 to 100)”, the “herbicidal activity against AMARE” value [8] is reported as “good (A good herbicidal activity is given at values of 80 to 90)” and the “herbicidal activity against ALOMY” value ([6]; application rate 0,250 kg/ha) is reported as “very good (a very good herbicidal activity is given at values of 90 to 100)”. For the same molecule, the “herbicidal activity against SETVI” value ([3]; application rate 0,250 kg/ha) was “very good (a very good herbicidal activity is given at values of 90 to 100)” and the “herbicidal activity against APESV” value ([4]; application rate 0,250 kg/ha) was “very good (a very good herbicidal activity is given at values of 90 to 100)”.

With `COC(=O)CC(C)NC(=O)C1(C)CN(c2cccc(Cl)c2)C1=O` (centres unmarked) [compound 135] the “herbicidal activity against AVEFA” value [7] was “very good (a very good herbicidal activity is given at values of 90 to 100)”, the “herbicidal activity against SETFA” value ([2]; application rate 0,250 kg/ha) was “very good (a very good herbicidal activity is given at values of 90 to 100)” and the “herbicidal activity against ALOMY” value ([6]; application rate 0,250 kg/ha) was “very good (a very good herbicidal activity is given at values of 90 to 100)”. The “herbicidal activity against SETVI” value ([3]; application rate 0,250 kg/ha) was “very good (a very good herbicidal activity is given at values of 90 to 100)” and the “herbicidal activity against APESV” value ([4]; application rate 0,250 kg/ha) was “very good (a very good herbicidal activity is given at values of 90 to 100)”.

With `COC(=O)CC(C)NC(=O)C1(C)CN(c2cccc(F)c2)C1=O` (centres unmarked) [compound 137] the “herbicidal activity against AVEFA” value [7] was “very good (a very good herbicidal activity is given at values of 90 to 100)”, the “herbicidal activity against AMARE” value [8] was “very good (a very good herbicidal activity is given at values of 90 to 100)” and the “herbicidal activity against APESV” value ([4]; application rate 0,250 kg/ha) was “very good (a very good herbicidal activity is given at values of 90 to 100)”.

With `COC(=O)CC(C)NC(=O)C1(C)CN(c2cc(F)cc(Cl)c2)C1=O` (centres unmarked) [compound 140] the “herbicidal activity against AVEFA” value [7] was “very good (a very good herbicidal activity is given at values of 90 to 100)”, the “herbicidal activity against ECHCG” value ([1]; application rate 0,250 kg/ha) was “very good (a very good herbicidal activity is given at values of 90 to 100)” and the “herbicidal activity against SETFA” value ([2]; application rate 0,250 kg/ha) was “very good (a very good herbicidal activity is given at values of 90 to 100)”. For the same molecule, the “herbicidal activity against SETVI” value ([3]; application rate 0,250 kg/ha) was “very good (a very good herbicidal activity is given at values of 90 to 100)” and the “herbicidal activity against APESV” value ([4]; application rate 0,250 kg/ha) was “very good (a very good herbicidal activity is given at values of 90 to 100)”.

In the case of `COC(=O)CC(C)NC(=O)C1(C)CN(c2cc(C)cc(F)c2)C1=O` (centres unmarked) [compound 142], the “herbicidal activity against AVEFA” value [7] is reported as “very good (a very good herbicidal activity is given at values of 90 to 100)”, the “herbicidal activity against AMARE” value [8] is reported as “good (A good herbicidal activity is given at values of 80 to 90)” and the “herbicidal activity against SETVI” value ([3]; application rate 0,250 kg/ha) is reported as “very good (a very good herbicidal activity is given at values of 90 to 100)”. For the same molecule, the “herbicidal activity against APESV” value ([4]; application rate 0,250 kg/ha) was “very good (a very good herbicidal activity is given at values of 90 to 100)”.
